Source: publication doi:10.1101/2020.02.05.936518
No constants are given. Whether binding was seen depends on the method and setting. In cells and extracts the contact can be indirect. Some binding calls cover weakened binding; strength is not graded here. One block for each binder: values may come before it.

The chains behind the UniProt entries cited, without tags or fusion partners. Residues count along the entry.
UniProt Q9QY81, residues 27-1886: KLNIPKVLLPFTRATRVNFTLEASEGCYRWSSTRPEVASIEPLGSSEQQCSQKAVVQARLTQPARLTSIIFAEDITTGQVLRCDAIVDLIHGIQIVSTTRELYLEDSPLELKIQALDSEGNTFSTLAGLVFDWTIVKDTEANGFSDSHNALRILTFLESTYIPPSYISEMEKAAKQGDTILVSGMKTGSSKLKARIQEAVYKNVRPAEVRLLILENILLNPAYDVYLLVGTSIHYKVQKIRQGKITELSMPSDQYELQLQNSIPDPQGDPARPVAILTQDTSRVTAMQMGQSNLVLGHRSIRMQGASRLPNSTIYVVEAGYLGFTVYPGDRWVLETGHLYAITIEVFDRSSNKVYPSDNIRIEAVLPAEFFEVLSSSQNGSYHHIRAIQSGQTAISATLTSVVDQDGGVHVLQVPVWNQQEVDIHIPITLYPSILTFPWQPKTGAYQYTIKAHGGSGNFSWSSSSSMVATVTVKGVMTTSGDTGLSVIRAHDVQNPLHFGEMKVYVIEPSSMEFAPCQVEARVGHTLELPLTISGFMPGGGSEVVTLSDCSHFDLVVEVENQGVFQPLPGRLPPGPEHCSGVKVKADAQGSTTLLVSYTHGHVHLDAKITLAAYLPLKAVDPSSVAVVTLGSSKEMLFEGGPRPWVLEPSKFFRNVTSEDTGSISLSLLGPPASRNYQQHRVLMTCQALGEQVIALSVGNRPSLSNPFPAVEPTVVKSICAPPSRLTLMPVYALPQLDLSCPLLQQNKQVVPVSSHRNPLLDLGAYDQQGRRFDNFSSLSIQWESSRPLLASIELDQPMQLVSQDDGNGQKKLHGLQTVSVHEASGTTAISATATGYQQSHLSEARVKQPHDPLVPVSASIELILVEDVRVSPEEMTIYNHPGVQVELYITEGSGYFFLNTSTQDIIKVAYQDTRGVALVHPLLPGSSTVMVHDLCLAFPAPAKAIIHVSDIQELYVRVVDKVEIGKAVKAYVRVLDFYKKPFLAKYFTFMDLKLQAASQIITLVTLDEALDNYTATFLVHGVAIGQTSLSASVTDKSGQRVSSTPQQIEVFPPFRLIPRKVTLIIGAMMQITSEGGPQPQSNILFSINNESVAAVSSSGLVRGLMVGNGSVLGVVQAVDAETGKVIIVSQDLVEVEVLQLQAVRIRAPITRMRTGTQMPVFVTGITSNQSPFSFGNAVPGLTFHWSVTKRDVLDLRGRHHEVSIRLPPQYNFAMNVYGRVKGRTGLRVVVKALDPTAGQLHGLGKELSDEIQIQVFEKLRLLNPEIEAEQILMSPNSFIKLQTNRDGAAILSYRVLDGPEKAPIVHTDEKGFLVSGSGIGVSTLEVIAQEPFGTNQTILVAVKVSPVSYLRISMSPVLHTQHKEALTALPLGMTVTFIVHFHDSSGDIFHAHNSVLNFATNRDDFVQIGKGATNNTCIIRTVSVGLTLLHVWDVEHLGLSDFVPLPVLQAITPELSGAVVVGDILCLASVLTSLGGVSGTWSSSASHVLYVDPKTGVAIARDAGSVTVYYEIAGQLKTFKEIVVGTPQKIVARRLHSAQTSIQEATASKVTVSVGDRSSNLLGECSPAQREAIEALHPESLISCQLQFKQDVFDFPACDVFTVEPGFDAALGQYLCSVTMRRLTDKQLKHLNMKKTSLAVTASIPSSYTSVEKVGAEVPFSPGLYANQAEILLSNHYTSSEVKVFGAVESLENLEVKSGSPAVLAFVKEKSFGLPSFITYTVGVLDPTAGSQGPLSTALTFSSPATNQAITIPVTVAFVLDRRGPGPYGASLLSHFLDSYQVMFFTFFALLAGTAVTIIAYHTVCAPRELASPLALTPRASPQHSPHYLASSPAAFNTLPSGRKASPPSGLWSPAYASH

How the values were obtained:
[1] = target: Myc-tagged NUP210 (NUP210-Myc), stably overexpressed in 4T1 cells (mouse) (UniProt Q9QY81); assay: co-IP
[2] = target: EZH2, endogenous in 4T1 cells (mouse (endogenous in 4T1)), Q61188; assay: co-IP; conditions: remark: other sources report otherwise

binding [1]: binds
B1: SUN2, endogenous in 4T1 cells (protein, UniProt Q8BJS4 1-731)
chain: MSRRSQRLTRYSQDDNDGGSSSSGASSVAGSQGTVFKDSPLRTLKRKSSNMKHLSPAPQLGPSSDSHTSYYSESVVRESYIGSPRAVSLARSALLDDHLHSEPYWSGDLRGRRRRGTGGSESSKANGLTAESKASEDFFGSSSGYSSEDDLAGYTDSDQHSSGSRLRSAASRAGSFVWTLVTFPGRLFGLLYWWIGTTWYRLTTAASLLDVFVLTRSRHFSLNLKSFLWFLLLLLLLTGLTYGAWHFYPLGLQTLQPAVVSWWAAKESRKQPEVWESRDASQHFQAEQRVLSRVHSLERRLEALAADFSSNWQKEAIRLERLELRQGAAGHGGGSSLSHEDALSLLEGLVSRREATLKEDLRRDTVAHIQEELATLRAEHHQDSEDLFKKIVQASQESEARVQQLKTEWKSMTQEAFQESSVKELGRLEAQLASLRQELAALTLKQNSVADEVGLLPQKIQAARADVESQFPDWIRQFLLGDRGARSGLLQRDEMHAQLQELENKILTKMAEMQGKSAREAAASLGQILQKEGIVGVTEEQVHRIVKQALQRYSEDRIGMVDYALESGGASVISTRCSETYETKTALLSLFGIPLWYHSQSPRVILQPDVHPGNCWAFQGPQGFAVVRLSARIRPTAVTLEHVPKALSPNSTISSAPKDFAIFGFDEDLQQEGTLLGTFAYDQDGEPIQTFYFQASKMATYQVVELRILTNWGHPEYTCIYRFRVHGEPAH

binding [2]: binds
B2: SUZ12, endogenous in 4T1 cells, Q80U70 1-741 (protein)
chain: MAPQKHGGGGGGGSGPSAGSGGGGFGGSAAAVAAAASGGKSGGGGCGGGGSYSASSSSAAAAAAAAGAAVLPVKKPKMEHVQADHELFLQAFEKPTQIYRFLRTRNLIAPIFLHRTLTYMSHRNSRTSIKRKTFKVDDMLSKVEKMKGEQESHSLSAHLQLTFTGFFHKNDKPSQNSENEQNSVTLEVLLVKVCHKKRKDVSCPIRQVPTGKKQVPLNPDLNQTKPGNFPSLAVSSNEFEPSNSHMVKSYSLLFRVTRPGRREFNGMINGETNENIDVSEELPARRKRNREDGEKTFVAQMTVFDKNRRLQLLDGEYEVAMQEMEECPISKKRATWETILDGKRLPPFETFSQGPTLQFTLRWTGETNDKSTAPVAKPLATRNSESLHQENKPGSVKPAQTIAVKETLTTELQTRKEKDNSNESRQKLRIFYQFLYNNNTRQQTEARDDLHCPWCTLNCRKLYSLLKHLKLCHSRFIFNYVYHPKGARIDVSINECYDGSYAGNPQDIHRQPGFAFSRNGPVKRTPITHILVCRPKRTKASMSEFLESEDGEVEQQRTYSSGHNRLYFHSDTCLPLRPQEMEVDSEDEKDPEWLREKTITQIEEFSDVNEGEKEVMKLWNLHVMKHGFIADNQMNHACMLFVENYGQKIIKKNLCRNFMLHLVSMHDFNLISIMSIDKAVTKLREMQQKLEKGESATPSNEEIAEEQNGTANGFSETNSKEKALETDGVSGVPKQSKKQKL

binding [1]: no binding
B3: SUN1, endogenous in 4T1 cells (protein, UniProt Q9D666 1-913)
chain: MDFSRLHTYTPPQCVPENTGYTYALSSSYSSDALDFETEHKLEPVFDSPRMSRRSLRLVTTASYSSGDSQAIDSHISTSRATPAKGRETRTVKQRRSASKPAFSINHLSGKGLSSSTSHDSSCSLRSATVLRHPVLDESLIREQTKVDHFWGLDDDGDLKGGNKAATQGNGELAAEVASSNGYTCRDCRMLSARTDALTAHSAIHGTTSRVYSRDRTLKPRGVSFYLDRTLWLAKSTSSSFASFIVQLFQVVLMKLNFETYKLKGYESRAYESQSYETKSHESEAHLGHCGRMTAGELSRVDGESLCDDCKGKKHLEIHTATHSQLPQPHRVAGAMGRLCIYTGDLLVQALRRTRAAGWSVAEAVWSVLWLAVSAPGKAASGTFWWLGSGWYQFVTLISWLNVFLLTRCLRNICKVFVLLLPLLLLLGAGVSLWGQGNFFSLLPVLNWTAMQPTQRVDDSKGMHRPGPLPPSPPPKVDHKASQWPQESDMGQKVASLSAQCHNHDERLAELTVLLQKLQIRVDQVDDGREGLSLWVKNVVGQHLQEMGTIEPPDAKTDFMTFHHDHEVRLSNLEDVLRKLTEKSEAIQKELEETKLKAGSRDEEQPLLDRVQHLELELNLLKSQLSDWQHLKTSCEQAGARIQETVQLMFSEDQQGGSLEWLLEKLSSRFVSKDELQVLLHDLELKLLQNITHHITVTGQAPTSEAIVSAVNQAGISGITEAQAHIIVNNALKLYSQDKTGMVDFALESGGGSILSTRCSETYETKTALLSLFGVPLWYFSQSPRVVIQPDIYPGNCWAFKGSQGYLVVRLSMKIYPTTFTMEHIPKTLSPTGNISSAPKDFAVYGLETEYQEEGQPLGRFTYDQEGDSLQMFHTLERPDQAFQIVELRVLSNWGHPEYTCLYRFRVHGEPIQ
